Experimental data: PubChem BioAssay AID720505 (Drosophila RNAi Screening Center, 2013)
Assay: 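Genes needed for store-operated calcium entry in fly cells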 (primary screen). System: Drosophila S2R+ cells. Reagents: long dsRNA against Drosophila genes. Treatment: thapsigargin (2 µM) in calcium-free buffer to empty internal stores, then 2 mM calcium added back. Measured: 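Fluo-4 signal in 384-well plates read on a FLIPR after thapsigargin (2 µM, calcium-free) store depletion and 2 mM calcium add-back; unnormalised mean endpoint per well; screen run twice, selected wells retested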. Scale: calcium signal and retest calcium signal: higher = more calcium entry after store depletion. Call rule: 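Knock-downs counted as hits when calcium entry dropped relative to STIM1 positive and Rho1 negative controls present on each plate; roughly 1500 genes called, with reductions of differing size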. Meaning of the calls: active = called as lowering calcium entry; inactive = not called.
The screen tested about 20,000 reagents; this is an unselected part of those with a known target gene and a result. In the full data, about 2,100 (10%) are marked active. 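Raw plate signals without normalisation; calls rest on control-based scores that were not deposited; replicate 2 separates called from uncalled poorly.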 Not given: the amount of reagent, the time to read-out.

| predicted target | DRSC id | calcium signal, replicate 1 | calcium signal, replicate 2 | retest calcium signal, replicate 1 | retest calcium signal, replicate 2 | Call |
| --- | --- | --- | --- | --- | --- | --- |
| CG15800 | DRSC04271 | 133 | 243 | – | – | inactive |
| GstE1 (Glutathione S transferase E1) | DRSC07437 | 186 | 146 | – | – | inactive |
| SsRbeta (Signal sequence receptor beta) | DRSC11290 | 123 | 88.9 | – | – | inactive |
| CG4949 | DRSC19926 | 120 | 89.5 | – | – | inactive |
| CG14855 | DRSC14979 | 121 | 163 | – | – | inactive |
| CG31601 | DRSC03678 | 120 | 7655 | – | – | inactive |
| CG7366 | DRSC10825 | 101 | 168 | – | – | inactive |
| CG9555 | DRSC03264 | 107 | 140 | – | – | inactive |
| rux (roughex) | DRSC18829 | 145 | 131 | – | – | inactive |
| Prtl99C (Protamine-like 99C) | DRSC15049 | 204 | 157 | – | – | inactive |
| Spec2 (retired record) | DRSC12258 | 112 | 180 | – | – | inactive |
| Spec2 (retired record) | DRSC22886 | 100 | 174 | – | – | inactive |
| CG4186 | DRSC11753 | 110 | 136 | – | – | inactive |
| CG30287 | DRSC03875 | 110 | 8322 | – | – | inactive |
| CG1943 | DRSC12576 | 120 | 161 | – | – | inactive |
| Ddr (Discoidin domain receptor) | DRSC00922 | 95.4 | 120 | – | – | inactive |
| Ddr (Discoidin domain receptor) | DRSC00923 | 100 | 149 | – | – | inactive |
| Ddr (Discoidin domain receptor) | DRSC02150 | 42.7 | 111 | – | – | active |
| Ddr (Discoidin domain receptor) | DRSC03229 | 199 | 110 | 97 | 84.3 | inactive |
| Ddr (Discoidin domain receptor) | DRSC03230 | 50.6 | 139 | – | – | active |
| Ddr (Discoidin domain receptor) | DRSC22818 | 68.7 | 96.3 | – | – | inactive |
| CG18649 | DRSC10334 | 86.1 | 134 | – | – | inactive |
| CG10254 | DRSC14153 | 187 | 243 | – | – | inactive |
| CG12766 | DRSC08295 | 95.8 | 70.5 | – | – | inactive |
| CG33225 | DRSC03881 | 92.6 | 6973 | – | – | inactive |
| Snx6 (Sorting nexin 6) | DRSC03081 | 140 | 238 | – | – | inactive |
| osk (oskar) | DRSC17023 | 66.2 | 108 | – | – | active |
| Sur-8 | DRSC15794 | 147 | 175 | – | – | inactive |
| CG1847 | DRSC19810 | 119 | 147 | – | – | inactive |
| CG5846 | DRSC02904 | 120 | 93.4 | – | – | inactive |
| Or85e (Odorant receptor 85e) | DRSC16768 | 154 | 105 | – | – | inactive |
| CG42233 | DRSC14328 | 96 | 106 | – | – | inactive |
| CG42233 | DRSC15416 | 70.8 | 150 | – | – | inactive |
| CG6675 | DRSC03735 | 122 | 91.9 | – | – | inactive |
| sbb (scribbler) | DRSC05723 | 95.9 | 84.9 | – | – | inactive |
| sbb (scribbler) | DRSC07676 | 137 | 127 | – | – | inactive |
| Dera (Deoxyribose-phosphate aldolase) | DRSC07207 | 221 | 152 | – | – | inactive |
| Dera (Deoxyribose-phosphate aldolase) | DRSC21336 | 115 | 93.6 | – | – | inactive |
| Osi3 (Osiris 3) | DRSC12175 | 114 | 130 | – | – | inactive |
| Cadps (Calcium-dependent secretion activator) | DRSC21057 | 119 | 96.3 | – | – | inactive |
| Cadps (Calcium-dependent secretion activator) | DRSC22200 | 117 | 227 | – | – | inactive |
| CG13423 | DRSC06386 | 123 | 117 | – | – | inactive |
| btsz (bitesize) | DRSC14982 | 171 | 179 | – | – | inactive |
| btsz (bitesize) | DRSC15222 | 151 | 175 | – | – | inactive |
| btsz (bitesize) | DRSC15320 | 121 | 154 | – | – | inactive |
| btsz (bitesize) | DRSC16231 | 124 | 205 | – | – | inactive |
| btsz (bitesize) | DRSC23250 | 74.3 | 128 | – | – | inactive |
| Phs (Phaser) | DRSC10827 | 127 | 96.8 | – | – | inactive |
| Nadk1a (NAD kinase 1a) | DRSC05431 | 120 | 147 | – | – | inactive |
| Nadk1a (NAD kinase 1a) | DRSC06963 | 151 | 150 | – | – | inactive |
| Set8 (SET domain containing 8) | DRSC15473 | 95.6 | 93.4 | – | – | inactive |
| MED1 (Mediator complex subunit 1) | DRSC11808 | 101 | 69.3 | – | – | inactive |
| elg1 (enhanced level of genomic instability 1) | DRSC10229 | 115 | 117 | – | – | inactive |
| Chro (Chromator) | DRSC11630 | 75.2 | 73.4 | – | – | inactive |
| Muc12Ea (Mucin 12Ea) | DRSC19937 | 117 | 161 | 5551 | 77.8 | inactive |
| CG14329 | DRSC14808 | 110 | 130 | – | – | inactive |
| CG10669 | DRSC14261 | 274 | 116 | – | – | inactive |
| CG18788 | DRSC02697 | 106 | 172 | – | – | inactive |
| dysf (dysfusion) | DRSC14529 | 203 | 137 | – | – | inactive |
| dysf (dysfusion) | DRSC14895 | 247 | 113 | – | – | inactive |
| dysf (dysfusion) | DRSC14896 | 225 | 108 | – | – | inactive |
| dysf (dysfusion) | DRSC14897 | 224 | 122 | – | – | inactive |
| CG43867 | DRSC17836 | 105 | 126 | – | – | inactive |
| CG43867 | DRSC17837 | 128 | 131 | – | – | inactive |
| CG43867 | DRSC17942 | 140 | 127 | 110 | 117 | inactive |
| CG43867 | DRSC17943 | 82.4 | 167 | – | – | inactive |
| yellow-h | DRSC17141 | 132 | 156 | – | – | inactive |
| LysX (Lysozyme X) | DRSC08678 | 66.8 | 134 | – | – | inactive |
| CG14448 | DRSC11705 | 78.3 | 173 | – | – | inactive |
| TfIIA-S (Transcription-factor-IIA-S) | DRSC16883 | 136 | 96.1 | – | – | inactive |
| CG9396 | DRSC16487 | 126 | 137 | – | – | inactive |
| slo (slowpoke) | DRSC17057 | 180 | 203 | – | – | inactive |
| slo (slowpoke) | DRSC21896 | 122 | 230 | – | – | inactive |
| slo (slowpoke) | DRSC23295 | 111 | 146 | – | – | inactive |
| Gmap (Golgi microtubule-associated protein) | DRSC19988 | 142 | 116 | – | – | inactive |
| Gmap (Golgi microtubule-associated protein) | DRSC20057 | 102 | 110 | – | – | inactive |
| RPA1 (Replication protein A1) | DRSC16830 | 72.6 | 64.9 | – | – | active |
| CG1607 | DRSC15130 | 57.7 | 83.6 | – | – | active |
| CG2076 | DRSC19832 | 135 | 92.8 | – | – | inactive |
| mRpL23 (mitochondrial ribosomal protein L23) | DRSC08307 | 115 | 93.2 | – | – | inactive |
| Scgalpha (Sarcoglycan alpha) | DRSC03076 | 177 | 121 | – | – | inactive |
| Stim (Stromal interaction molecule) | DRSC20158 | 60.9 | 52.4 | – | – | active |
| Ugt37A2 (UDP-glycosyltransferase family 37 member A2) | DRSC15861 | 174 | 89.3 | – | – | inactive |

Reagents listed above marked active:
| predicted target | DRSC id | calcium signal, replicate 1 | calcium signal, replicate 2 | retest calcium signal, replicate 1 | retest calcium signal, replicate 2 | Call |
| --- | --- | --- | --- | --- | --- | --- |
| Ddr (Discoidin domain receptor) | DRSC02150 | 42.7 | 111 | – | – | active |
| Ddr (Discoidin domain receptor) | DRSC03230 | 50.6 | 139 | – | – | active |
| osk (oskar) | DRSC17023 | 66.2 | 108 | – | – | active |
| RPA1 (Replication protein A1) | DRSC16830 | 72.6 | 64.9 | – | – | active |
| CG1607 | DRSC15130 | 57.7 | 83.6 | – | – | active |
| Stim (Stromal interaction molecule) | DRSC20158 | 60.9 | 52.4 | – | – | active |
